Test results from PubChem BioAssay AID248 (DTP/NCI, 2004).
The list does not hold the whole screen: it is rich in T/C values a quarter to a half above the control, in often repeated tests (any T/C) and in doses without a T/C. Other doses and runs of a compound stand elsewhere. T/C: endpoint of the treated group in % of that of the vehicle group. Some entries give survivors of the animals treated and no T/C: the source holds a T/C of zero for them, seemingly a mark for toxic or unscored doses. Some doses without a T/C left all or most animals alive at the check, yet need not have been tolerated: the source hardly ever lists a survival T/C far under the control, and the zero likely stands for such cases as well. Survivors were counted at the toxicity check, usually on the fifth day, unless a day is given; later deaths do not show. Schedules are NCI's codes, taken here to give the interval after Q, in days (D) or hours (H), and the number of doses after X. Some schedules carry Z or #; the key to these is not given. Some doses were run more than once; their values stand side by side, smallest first. Where survival is the endpoint, this PubChem deposit counts one and a half times the control or more as active, and values a quarter to a half above the control carry no call in these data; other NCI protocols may use other cut-offs. Some T/C values carry the count of animals alive at the toxicity check (mostly the fifth day); where none is given, no animal had died by that day. Marks such as (2×) give the number of equal values in this list.

Test system: L1210 leukemia ip in BDF1 mice, survival T/C
Experiment: NCI In Vivo Anticancer Drug Screen. Data for tumor model L1210 Leukemia (intraperitoneal) in B6D2F1 (BDF1) mice
Settings: T/C endpoint: mean survival time, higher T/C = longer survival
[1] = dose: 200.0 mg/kg/injection, schedule: Q01DX001 (ip), vehicle: saline
[2] = dose: 300.0 mg/kg/injection, schedule: Q01DX001 (ip), vehicle: saline
[3] = dose: 200.0 mg/kg/injection, schedule: Q04DX003 (ip), vehicle: saline
[4] = dose: 400.0 mg/kg/injection, schedule: Q04DX003 (ip), vehicle: saline
[5] = dose: 200.0 mg/kg/injection, schedule: Q04DX003 (ip), vehicle: Klucel (hydroxypropylcellulose) (HPC)
[6] = dose: 400.0 mg/kg/injection, schedule: Q04DX003 (ip), vehicle: Klucel (hydroxypropylcellulose) (HPC)
[7] = dose: 100.0 mg/kg/injection, schedule: Q04DX003 (ip), vehicle: Klucel (hydroxypropylcellulose) (HPC)
[8] = dose: 200.0 mg/kg/injection, schedule: Q01DX009 (ip), vehicle: saline with Tween-80
[9] = dose: 400.0 mg/kg/injection, schedule: Q01DX009 (ip), vehicle: Klucel (hydroxypropylcellulose) (HPC)
[10] = dose: 400.0 mg/kg/injection, schedule: Q04DX003 (ip), vehicle: saline with Tween-80

CCC1CN2CCc3cc(OC)c(OC)cc3C2CC1CC1c2cc(OC)c(OC)cc2CCN1C(=O)C(Cc1c[nH]c2ccccc12)NC(=O)OC(C)(C)C (stereo unspecified)
T/C (dose: 128.0 mg/kg/injection, schedule: Q01DX009 (oral), vehicle: saline with Tween-80): 126 % of control
T/C (dose: 133.0 mg/kg/injection, schedule: Q01DX001 (ip), vehicle: saline): 129 % of control
T/C (dose: 150.0 mg/kg/injection, schedule: Q01DX009 (ip), vehicle: saline): 135 % of control
T/C [1]: 125 % of control
survivor count (dose: 256.0 mg/kg/injection, schedule: Q01DX005 (ip), vehicle: saline with Tween-80): 1 of 10
survivor count (dose: 256.0 mg/kg/injection, schedule: Q01DX009 (ip), vehicle: saline with Tween-80): 2 of 10
T/C [2]: 125 % of control [5 of 6 alive]

CCCCCCCCCCCCCCCC(=O)N(CCCN)CCCN(CCCN)C(=O)CCCCCCCCCCCCCCC
survivor count [3]: 3 of 6
survivor count [4]: 0 of 6

C=CCc1ccc(OCCOCCNC2CC(C)CCC2C(C)C)c(OC)c1 (stereo unspecified)
survivor count [5]: 0 of 6
survivor count [6]: 0 of 6

COC(=O)C1C2CC3c4[nH]c5cc(OC)ccc5c4CCN3CC2CC(OC(=O)c2cc(OC)c(OC)c(OC)c2)C1OC (stereo unspecified)
survivor count (dose: 100.0 mg/kg/injection, schedule: Q01DX009 (ip), vehicle: Klucel (hydroxypropylcellulose) (HPC)): 0 of 6
survivor count [3]: 0 of 4
survivor count [4]: 0 of 4

O=C(NCCCCNC(=O)Nc1cccc(C2=NCCN2)c1)Nc1cccc(C2=NCCN2)c1
survivor count (dose: 92.0 mg/kg/injection, schedule: Q01DX Z (ip), vehicle: carboxymethylcellulose (CMC)): 6 of 6

COc1cc(C(=O)OC(C)CN2CCOCC2)cc(OC)c1OC (stereo unspecified)
survivor count (dose: 400.0 mg/kg/injection, schedule: Q01DX009 (ip), vehicle: saline): 4 of 6

CCOC(=O)Nc1cc([N+](C)(C)C)ccc1OCCOc1ccc([N+](C)(C)C)cc1
survivor count [7]: 0 of 6
survivor count [5]: 0 of 6
survivor count [6]: 0 of 6

COc1ccc(/C=N/NC(=O)CCCCCCCCC(=O)N/N=C/c2ccc(OC)c(OC)c2)cc1OC
T/C (dose: 100.0 mg/kg/injection, schedule: Q01DX009 (ip), vehicle: saline with Tween-80): 103, 105 (2×), 106 % of control
T/C [8]: 86, 97, 115 % of control [5 of 6 alive]
survivor count [8]: 3 of 3
survivor count (dose: 400.0 mg/kg/injection, schedule: Q01DX001 (ip), vehicle: saline with Tween-80): 1 of 3
survivor count (dose: 400.0 mg/kg/injection, schedule: Q01DX009 (ip), vehicle: saline with Tween-80): 1 of 6 and 1 of 3

CC(C)COC(=O)c1ccc(NC(=S)Nc2ccccc2)cc1
survivor count [9]: 0 of 6

CCOP(=O)(OCC)C(C)C#N (stereo unspecified)
survivor count (dose: 60.0 mg/kg/injection, schedule: Q01DX001 (ip), vehicle: saline): 2 of 6
survivor count (dose: 75.0 mg/kg/injection, schedule: Q01DX001 (ip), vehicle: saline): 1 of 6
survivor count (dose: 150.0 mg/kg/injection, schedule: Q01DX001 (ip), vehicle: saline): 1 of 6
survivor count [2]: 0 of 6

CCCC(Cc1ccccc1)N1CCCC1 (stereo unspecified)
survivor count (dose: 50.0 mg/kg/injection, schedule: Q01DX009 (ip), vehicle: saline): 3 of 6
survivor count (dose: 100.0 mg/kg/injection, schedule: Q04DX003 (ip), vehicle: saline): 0 of 4
survivor count [3]: 0 of 4
survivor count [4]: 0 of 4

CCN(CC)CCOc1ccc(/C=C2\CCc3ccccc3C2=O)cc1
survivor count [3]: 0 of 6

COc1ccc(OC)c(N)c1
survivor count (dose: 200.0 mg/kg/injection, schedule: Q01DX009 (ip), vehicle: Klucel (hydroxypropylcellulose) (HPC)): 0 of 6
survivor count [9]: 0 of 6

C(=C(c1ccccc1)c1ccccc1)c1ccccn1
survivor count [10]: 6 of 6

C1=NCCc2cc3[nH]c4ccccc4c3cc21
survivor count [5]: 1 of 6
survivor count (dose: 400.0 mg/kg/injection, schedule: Q01DX001 (ip), vehicle: Klucel (hydroxypropylcellulose) (HPC)): 0 of 6

CNCCOc1ccccc1
survivor count [8]: 3 of 6
survivor count [10]: 0 of 6

COc1ccc([N+](=O)[O-])c2c(C)cc(=O)[nH]c12
survivor count [9]: 2 of 6

OC(/C=C/C(O)c1ccccc1)c1ccccc1 (stereo unspecified)
survivor count [7]: 1 of 6
survivor count [5]: 0 of 6
survivor count [6]: 0 of 6

O=NN(CCCl)C(=O)Nc1ccc(C(=O)O)cc1
T/C (dose: 0.5 mg/kg/injection, schedule: Q01DX Z (ip), vehicle: saline): 140 % of control
T/C (dose: 0.75 mg/kg/injection, schedule: Q01DX Z (ip), vehicle: saline): 142 % of control
T/C (dose: 1.0 mg/kg/injection, schedule: Q01DX Z (ip), vehicle: saline): 141 % of control
T/C (dose: 1.25 mg/kg/injection, schedule: Q01DX001 (ip), vehicle: carboxymethylcellulose (CMC)): 125 % of control
T/C (dose: 3.7 mg/kg/injection, schedule: Q01DX001 (ip), vehicle: carboxymethylcellulose (CMC)): 126 % of control
T/C (dose: 3.75 mg/kg/injection, schedule: Q01DX001 (ip), vehicle: carboxymethylcellulose (CMC)): 127, 137, 142 % of control
T/C (dose: 5.0 mg/kg/injection, schedule: Q01DX001 (ip), vehicle: carboxymethylcellulose (CMC)): 140 % of control
T/C (dose: 7.5 mg/kg/injection, schedule: Q01DX001 (ip), vehicle: carboxymethylcellulose (CMC)): 146, 147, 152, 162 % of control
T/C (dose: 7.5 mg/kg/injection, schedule: Q## X001 (ip), vehicle: carboxymethylcellulose (CMC)): 145 % of control
T/C (dose: 10.0 mg/kg/injection, schedule: Q01DX001 (ip), vehicle: carboxymethylcellulose (CMC)): 143 % of control
survivor count (dose: 18.0 mg/kg/injection, schedule: Q01DX Z (ip), vehicle: carboxymethylcellulose (CMC)): 6 of 6
survivor count (dose: 31.0 mg/kg/injection, schedule: Q01DX001 (ip), vehicle: carboxymethylcellulose (CMC)): 5 of 6
survivor count (dose: 37.0 mg/kg/injection, schedule: Q01DX Z (ip), vehicle: carboxymethylcellulose (CMC)): 3 of 6
survivor count (dose: 50.0 mg/kg/injection, schedule: Q01DX Z (ip), vehicle: carboxymethylcellulose (CMC)): 1 of 6
survivor count (dose: 62.0 mg/kg/injection, schedule: Q01DX001 (ip), vehicle: carboxymethylcellulose (CMC)): 4 of 6
survivor count (dose: 75.0 mg/kg/injection, schedule: Q01DX Z (ip), vehicle: carboxymethylcellulose (CMC)): 0 of 6
survivor count (dose: 100.0 mg/kg/injection, schedule: Q01DX Z (ip), vehicle: carboxymethylcellulose (CMC)): 0 of 6
survivor count (dose: 125.0 mg/kg/injection, schedule: Q01DX001 (ip), vehicle: carboxymethylcellulose (CMC)): 1 of 6
survivor count (dose: 150.0 mg/kg/injection, schedule: Q01DX Z (ip), vehicle: carboxymethylcellulose (CMC)): 0 of 6
survivor count (dose: 200.0 mg/kg/injection, schedule: Q01DX Z (ip), vehicle: carboxymethylcellulose (CMC)): 0 of 6
survivor count (dose: 250.0 mg/kg/injection, schedule: Q01DX001 (ip), vehicle: carboxymethylcellulose (CMC)): 0 of 6
survivor count (dose: 375.0 mg/kg/injection, schedule: Q01DX001 (ip), vehicle: carboxymethylcellulose (CMC)): 0 of 6
survivor count (dose: 500.0 mg/kg/injection, schedule: Q01DX001 (ip), vehicle: carboxymethylcellulose (CMC)): 0 of 6

CC(C)O/N=C(/N)N=C(N)N
survivor count (dose: 400.0 mg/kg/injection, schedule: Q01DX001 (ip), vehicle: other): 0 of 6

[B-][NH2+]CC[NH2+][B-]
survivor count (dose: 100.0 mg/kg/injection, schedule: Q01DX001 (ip), vehicle: saline): 3 of 4
survivor count [1]: 2 of 4
